PubChem BioAssay AID686943, Drosophila RNAi Screening Center | 2013

- Assay: 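Knockdowns that increase or decrease active ERK after insulin receptor stimulation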 (primary screen)
- Cells: Drosophila S2R+ haemocyte-like cells expressing YFP-tagged ERK (Rolled)
- Knock-down reagent: long dsRNA against Drosophila genes
- Treatment: insulin stimulation versus unstimulated cells; dose and duration not given
- Read-out: 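Per-plate z-scores of phospho-ERK immunostaining normalised to YFP-tagged ERK, measured with and without insulin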
- Direction: replicate 1, z-score of dpERK with insulin and replicate 2, z-score of dpERK with insulin: higher = more active ERK per ERK-YFP after insulin
The screen tested about 23,000 reagents; shown is a random part of those that have a named target and a result. 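Extra replicates exist only for a retested subset of genes; insulin dose and duration not given; both raised and lowered dpERK matter.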 Not all columns of the deposit are shown. Not given: the amount of reagent, the time to read-out.

5PtaseI [DRSC16269] gave replicate 1, z-score of dpERK with insulin 0.43; replicate 2, z-score of dpERK with insulin -0.43.
After knock-down of 5PtaseI [DRSC22090], the screen gave replicate 1, z-score of dpERK with insulin 0.56; replicate 2, z-score of dpERK with insulin 0.77.
Knock-down of CG4293 [DRSC18557] came out at: replicate 1, z-score of dpERK with insulin -0.97; replicate 2, z-score of dpERK with insulin -0.18.
Depletion of tll [DRSC17085] came out at: replicate 1, z-score of dpERK with insulin -0.14; replicate 2, z-score of dpERK with insulin -0.1.
nonA-l [DRSC17017] gave replicate 1, z-score of dpERK with insulin -0.77; replicate 2, z-score of dpERK with insulin -1.41.
For CG3216 [DRSC04347] the deposit lists replicate 1, z-score of dpERK with insulin 1.52; replicate 2, z-score of dpERK with insulin 0.56.
After knock-down of Prosalpha7 [DRSC07516], the record shows replicate 1, z-score of dpERK with insulin -1.6; replicate 2, z-score of dpERK with insulin -2.06.
With knock-down of CG32537 [DRSC20073] the results were replicate 1, z-score of dpERK with insulin 0.49; replicate 2, z-score of dpERK with insulin 0.79.
Silencing of yuri [DRSC01453] gave: replicate 1, z-score of dpERK with insulin -0.64; replicate 2, z-score of dpERK with insulin -1.02.
Knock-down of yuri [DRSC01454] came out at: replicate 1, z-score of dpERK with insulin 0.22; replicate 2, z-score of dpERK with insulin -2.31.
Silencing of yuri [DRSC01943] gave: replicate 1, z-score of dpERK with insulin 1; replicate 2, z-score of dpERK with insulin 1.04.
After knock-down of yuri [DRSC01972] the results were replicate 1, z-score of dpERK with insulin 0.1; replicate 2, z-score of dpERK with insulin -0.06.
With knock-down of Gr22b [DRSC20911], the screen gave replicate 1, z-score of dpERK with insulin -0.54; replicate 2, z-score of dpERK with insulin -0.04.
Against dsd [DRSC13829], the entry reads replicate 1, z-score of dpERK with insulin 0.23; replicate 2, z-score of dpERK with insulin 0.01.
Against dsd [DRSC15850], the entry reads replicate 1, z-score of dpERK with insulin 2.23; replicate 2, z-score of dpERK with insulin -0.97.
For FASN3 [DRSC20882], the entry reads replicate 1, z-score of dpERK with insulin -0.31; replicate 2, z-score of dpERK with insulin 0.37.
Knock-down of Eip63F-1 [DRSC08072] came out at: replicate 1, z-score of dpERK with insulin -0.03; replicate 2, z-score of dpERK with insulin 0.02.
Eip63F-1 [DRSC08659] showed replicate 1, z-score of dpERK with insulin 0.2; replicate 2, z-score of dpERK with insulin 0.46.
Gbs-70E [DRSC11055] gave replicate 1, z-score of dpERK with insulin -0.56; replicate 2, z-score of dpERK with insulin 0.4.
For Pldn [DRSC10137], the values are replicate 1, z-score of dpERK with insulin -0.05; replicate 2, z-score of dpERK with insulin 0.05.
Nuf2 [DRSC03123] scored replicate 1, z-score of dpERK with insulin -0.76; replicate 2, z-score of dpERK with insulin 0.1.
For Drep4 [DRSC03408], the entry reads replicate 1, z-score of dpERK with insulin -0.92; replicate 2, z-score of dpERK with insulin -0.5.
CG7420 [DRSC00704] showed replicate 1, z-score of dpERK with insulin -0.48; replicate 2, z-score of dpERK with insulin -0.57.
CG14671 [DRSC12257] showed replicate 1, z-score of dpERK with insulin 0.08; replicate 2, z-score of dpERK with insulin -0.03.
CG1927 [DRSC08146] showed replicate 1, z-score of dpERK with insulin 0.01; replicate 2, z-score of dpERK with insulin -0.21.
Knock-down of EMC8-9 [DRSC04380] gave: replicate 1, z-score of dpERK with insulin -0.12; replicate 2, z-score of dpERK with insulin 0.67.
Knock-down of CG31495 [DRSC16762] gave: replicate 1, z-score of dpERK with insulin -0.94; replicate 2, z-score of dpERK with insulin 1.95.
MsR1 [DRSC08615] scored replicate 1, z-score of dpERK with insulin 0.37; replicate 2, z-score of dpERK with insulin -0.37.
Knock-down of Dcr-2 [DRSC06992] resulted in: replicate 1, z-score of dpERK with insulin 0.32; replicate 2, z-score of dpERK with insulin -0.01.
CR31958 [DRSC00282] showed replicate 1, z-score of dpERK with insulin 0.11; replicate 2, z-score of dpERK with insulin 0.31.
After knock-down of CR31958 [DRSC21858], the screen gave replicate 1, z-score of dpERK with insulin 0.64; replicate 2, z-score of dpERK with insulin 1.23.

4 consecutive records from above:
dsd [DRSC13829]: replicate 1, z-score of dpERK with insulin = 0.23; replicate 2, z-score of dpERK with insulin = 0.01
dsd [DRSC15850]: replicate 1, z-score of dpERK with insulin = 2.23; replicate 2, z-score of dpERK with insulin = -0.97
FASN3 [DRSC20882]: replicate 1, z-score of dpERK with insulin = -0.31; replicate 2, z-score of dpERK with insulin = 0.37
Eip63F-1 [DRSC08072]: replicate 1, z-score of dpERK with insulin = -0.03; replicate 2, z-score of dpERK with insulin = 0.02
